In PubChem BioAssay AID504834 (National Center for Advancing Translational Sciences (NCATS), 2011):
Hit rate of the full screen: of about 320,000 compounds, about 22,000 (6.9%) were called active. The inconclusive results got no clear call from the source; some entries with a clear call stand among them for comparison. Calls come from the whole dose curve; as a rule, active = well fitted inhibition curve with a large enough effect; inconclusive = small, poorly fitted or top-dose-only effect, or another doubt; inactive = no such curve, though single readings can be large or run the other way. Potencies of inconclusive entries are doubtful fits and often do not repeat.

assay: Primary qHTS for delayed death inhibitors of the malarial parasite plastid, 96 hour incubation; settings: P. falciparum luciferase reporter growth; series mostly up to 28.7 µM; activity change, negative = inhibition: at the top concentration
In short: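 Compounds incubated with erythrocytes infected by luciferase-expressing P. falciparum (2% hematocrit, 0.05% parasitemia final) for 96 hours, 37 C in 5% CO2. Growth inhibition scored as decreased luciferase luminescence.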
% is set by controls: 0 for no effect and ±100 for the full control effect; potency is the fitted concentration of half-maximal effect.

SMILES	Potency	activity change, negative = inhibition
CCOc1ccc(NC(=O)CN(C)S(=O)(=O)c2cccc3cccnc23)cc1	inconclusive: 14.7 µM [inhibitor, single point]	
COc1ccc(C(NC(=O)C(C)C)c2ccc3cccnc3c2O)cc1 (stereo not drawn)	inconclusive: 1.65 µM [inhibitor, full curve]	
O=C(Nc1ccc(Br)c(C(F)(F)F)c1)c1ccccc1		inactive: -17.5%
CCN(CC)C(=O)CSc1nnc(CNc2ccc(F)cc2)o1	inconclusive: 18.5 µM [inhibitor, single point]	
N#Cc1ccccc1S(=O)(=O)N1CCN(C(=O)CCC2CCCC2)CC1	inconclusive: 14.7 µM [inhibitor, single point]	
COc1ccccc1C1CC(c2cccc(NS(C)(=O)=O)c2)=NN1S(=O)(=O)c1ccccc1 (stereo not drawn)	inconclusive: 9.28 µM [inhibitor, partial curve, poor fit]	
Clc1ccc(/C=N/Nc2ncnc3ccccc23)cc1Cl	inconclusive: 11.7 µM [inhibitor, partial curve, poor fit]	
O=C(c1ccco1)N1CCN(C(=O)c2ccc(COc3ccc4c(c3)CCC4)o2)CC1	inconclusive: 9.28 µM [inhibitor, single point]	
O=C(O)CSCC(=O)N(c1ccccc1)c1ccccc1	inconclusive: 18.5 µM [inhibitor, single point]	
CCOC(=O)CSc1[nH]c(=O)cc(C)c1C#N	inconclusive: 18.5 µM [inhibitor, single point]	
CCc1nc2ccccc2n1CC(=O)Nc1cc(C)on1	active: 4.65 µM	
CCOc1cc(/C=N/NS(=O)(=O)c2ccc(OC)cc2)ccc1OCCN1CCOCC1	active: 5.22 µM	
CCCN(CCC)C(=O)c1cn(C)c2ccc(S(=O)(=O)N3CCCC3)cc2c1=O	inconclusive: 10.4 µM [inhibitor, single point]	
Cc1scc(C(=O)N/N=C/c2ccc([N+](=O)[O-])o2)c1C	active: 1.65 µM	
Cc1cc(C)c(C(=O)/C=C/c2cccs2)c(=O)[nH]1	inconclusive: 11.7 µM [inhibitor, single point]	
Cc1nnc(N/N=C/C(C)c2ccccc2)[nH]c1=O (stereo not drawn)		inactive: 28.6%
Cc1cc(OCC(=O)OCC(=O)NC2CCCC2)ccc1Cl	inconclusive: 18.5 µM [inhibitor, single point]	
COc1ccccc1CN1CCCC(CN(CCN(C)C)C(=O)c2ccc(C)cc2)C1 (stereo not drawn)	inconclusive: 18.5 µM [inhibitor, single point]	
CCCCn1c(SC(C)C(=O)c2ccc(OC)cc2)nc2cc(S(N)(=O)=O)ccc21 (stereo not drawn)	inconclusive: 18.5 µM [inhibitor, single point]	
COC(=O)[C@@]1(Cc2ccc(F)cc2)[C@@H]2[C@@H](CC(=O)[C@H]2CC(=O)C(=O)N(C)C)CN1C(=O)c1ccccc1	active: 9.28 µM	
COc1ccc(NC(=O)CN(Cc2ccccc2)Cc2ccccc2)cc1S(N)(=O)=O	inconclusive: 9.28 µM [inhibitor, single point]	
Cc1nc(SCC(=O)O)c(C#N)c(C)c1CC(=O)c1ccccc1	inconclusive: 18.5 µM [inhibitor, single point]	

SMILES	Potency	activity change, negative = inhibition
COc1ccc(C)cc1-n1nnnc1SCc1nc2ccccc2c(=O)[nH]1	inconclusive: 11.7 µM [inhibitor, partial curve, poor fit]	
CCC(C)NS(=O)(=O)c1ccc(S(=O)(=O)N(CCc2ccc(OC)c(OC)c2)Cc2cccs2)cc1 (stereo not drawn)		inactive: -2.69%
Cc1cccc(NC(=O)CN2CCN(C(=O)C3CCCO3)CC2)c1C (stereo not drawn)	inconclusive: 1.04 µM [inhibitor, full curve, poor fit]	
CCCCCn1c(=O)c(-c2nc3ccccc3[nH]2)c(O)c2ccccc21		inactive: 23.2%
CCOC(=O)C1CCCN(C(=O)c2cccc([N+](=O)[O-])c2C)C1 (stereo not drawn)	inconclusive: 10.4 µM [inhibitor, single point]	
CCC1COC(c2cccn2Cc2ccccc2Cl)=N1 (stereo not drawn)	active: 11.7 µM	
COc1cccc(-n2cnnc2SC(C)C(=O)NC2CCCC2)c1 (stereo not drawn)	inconclusive: 14.7 µM [inhibitor, single point]	
CSc1nnc(C)c(=O)n1COC(=O)/C=C/c1ccc2c(c1)OCO2		inactive: 53.3%
Cc1cc(OCC(=O)NCCN2CCOCC2)cc(C)c1Cl		inactive: 20.9%
COc1ccc(OC)c(NCc2nnc(-c3ccccc3)o2)c1		inactive: -0.714%
CCCCNC(=O)c1c(CSc2ccc(Cl)cc2)noc1C(=O)NCCC	inconclusive: 2.62 µM [inhibitor, single point]	
CSc1ccccc1NC(=O)c1ccco1	inconclusive: 11.7 µM [inhibitor, partial curve, poor fit]	
COc1ccccc1CNC(=O)COC(=O)CCC(=O)c1cccs1		inactive: -12.2%
CCn1c2ccccc2c2cc(NC(=O)COC(=O)Cc3cn4ccsc4n3)ccc21	inconclusive: 10.4 µM [inhibitor, partial curve, poor fit]	
CC(=O)COc1ccc2c(-c3ccccc3)cc(=O)oc2c1		inactive: 13.2%
COc1ccc(CCNC(=O)CSCc2ccc(Cl)cc2)cc1OC	inconclusive: 9.28 µM [inhibitor, partial curve, poor fit]	
N#C/C(=C\c1cn(Cc2ccc(F)cc2)c2ccccc12)C(=O)NCc1ccco1	inconclusive: 18.5 µM [inhibitor, single point]	
O=C(NCc1ccco1)C12CN(Cc3ccccc3)CC1C(c1cccc([N+](=O)[O-])c1)=NO2 (stereo not drawn)	inconclusive: 13.1 µM [inhibitor, single point]	
O=C(c1ccco1)N1CCN(Cc2cc(=O)c(OCc3cccc(F)c3)co2)CC1	inconclusive: 18.5 µM [inhibitor, single point]	
Cc1cc(C)c(S(=O)(=O)N2CCCCC2)cc1N(C)S(=O)(=O)c1ccc(Cl)cc1	inconclusive: 2.08 µM [inhibitor, full curve]	
CC(=O)c1cccc(NC(=O)CN2CCc3cc4c(cc3C2C)OCCCO4)c1 (stereo not drawn)	inconclusive: 7.38 µM [inhibitor, partial curve, poor fit]	

An excerpt from further up, as a working copy:
SMILES	Potency	activity change, negative = inhibition
O=C(NCc1ccco1)C12CN(Cc3ccccc3)CC1C(c1cccc([N+](=O)[O-])c1)=NO2 (stereo not drawn)	inconclusive: 13.1 µM [inhibitor, single point]	
O=C(c1ccco1)N1CCN(Cc2cc(=O)c(OCc3cccc(F)c3)co2)CC1	inconclusive: 18.5 µM [inhibitor, single point]	
Cc1cc(C)c(S(=O)(=O)N2CCCCC2)cc1N(C)S(=O)(=O)c1ccc(Cl)cc1	inconclusive: 2.08 µM [inhibitor, full curve]	
